Experimental data taken from patent US4208398A, “Technetium-labeled complexes, production and use thereof” (priority 1975, dated 1980).
The name of at least one read-out is uncertain.

Test: water/octanol partition coefficient Ln(aw/ao) of the technetium complex
Assay type: physicochemical
Method: This ratio of distribution is quite easily followed by determining the activity of the respective phases of a two-phase system, in which the complex is added as a water solution to octanol in equal parts. […] (wherein aw is the radioactivity distributed in the aqueous phase and ao is the radioactivity distributed in the organic phase, at a pH in the range between pH 4 and pH 9), after thorough agitation to admix the phases followed by standing to accomplish complete separation.
The blood is on the mildly alkaline side at pH=7.4, while the urine, etc., is about pH 5 to pH 8.

technetium-mercaptoacetic acid
Partition Coefficient - Ln(aw/ao) (solution pH 4): 2.9 | Partition Coefficient - Ln(aw/ao) (solution pH 5): 3.2 | Partition Coefficient - Ln(aw/ao) (solution pH 6): 3.5 | Partition Coefficient - Ln(aw/ao) (solution pH 7): 3.8 | Partition Coefficient - Ln(aw/ao) (solution pH 8): 4.1 | Partition Coefficient - Ln(aw/ao) (solution pH 9): 4.4
